Here are results for 54 sequences from PMC7819943, “Rice protein-binding microarrays: a tool to detect cis-acting elements near promoter regions in rice”.

The list shows a part of the results.

The target of this test is T1, OsSMF1 (Oryza sativa, UniProt Q6ZLB0 1-436).
T1 sequence: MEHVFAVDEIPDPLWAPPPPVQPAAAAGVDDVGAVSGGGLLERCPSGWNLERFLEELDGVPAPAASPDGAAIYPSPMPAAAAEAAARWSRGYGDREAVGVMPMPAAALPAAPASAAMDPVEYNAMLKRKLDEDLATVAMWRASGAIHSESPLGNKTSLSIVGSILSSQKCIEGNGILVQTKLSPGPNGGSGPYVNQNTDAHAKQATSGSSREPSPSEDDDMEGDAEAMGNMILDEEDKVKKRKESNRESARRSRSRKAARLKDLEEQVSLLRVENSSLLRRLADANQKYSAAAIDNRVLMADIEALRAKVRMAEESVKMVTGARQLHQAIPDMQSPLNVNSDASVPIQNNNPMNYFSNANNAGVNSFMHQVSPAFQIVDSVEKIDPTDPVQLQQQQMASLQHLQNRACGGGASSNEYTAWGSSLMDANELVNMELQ
Nature of the test: protein-binding microarray (RPBM); PBS, 2% BSA, 51.3 ng/ul salmon testes DNA, 50 uM zinc acetate, 200 nM TF, 25 C, 1 h; high values mean tight binding. To be noted: protein: recombinant; tags: N-terminal polyhistidine and DsRed monomer fusion (pET32a); chain copies: 2; label: CyDye5-dUTP incorporated in the synthesized complementary strand; 3' TTTTT single-stranded linker to array surface; dsDNA, one strand shown. In a few lines: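 In PBS with 2% BSA, salmon testes DNA and 50 µM zinc acetate, 200 nM protein was incubated on a custom Agilent array at 25 °C for 1 h and then washed off. The array had been made double-stranded by primer extension with Cy5-dUTP and blocked with 2% BSA. The proteins were transcription factors fused N-terminally to polyhistidine and DsRed, expressed in E. coli BL21-CodonPlus and purified on Ni–NTA. The binding signal is per-feature fluorescence intensity (arbitrary units) from an Axon 4000B scanner.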
As to “CGTTGTGGAGAATCTCTTTGCCAGCGGGGCGTAGGTTGAGCGGAGTCACCTAGTGCAG”, the binding signal is 3780 fluorescence intensity (a.u.). For “ACAGGAGTTCTTCTGATTACTCGTGGCCAAGAAAACTCGACGGAGTCACCTAGTGCAG”, the binding signal is 3200 fluorescence intensity (a.u.). With “ATTTTCAGGAAATTCAAACACCGCCTAGGTGATGACATTGCGGAGTCACCTAGTGCAG”, the binding signal is 3720 fluorescence intensity (a.u.). For the sequence “GGTTGAATCAAATTGTTCCTCTGTTACACTTACACATCATCGGAGTCACCTAGTGCAG”, the binding signal is 3250 fluorescence intensity (a.u.).

With “CCTCGCCTCTCCTCGCCGGTTCGCCGTCGCGGCCGCCTCCCGGAGTCACCTAGTGCAG”, the binding signal was 3550 fluorescence intensity (a.u.). Under “GATGGAGGCGAACGTCGACCCCATGATGAGGTGGGGTCATCGGAGTCACCTAGTGCAG” stands 3220 fluorescence intensity (a.u.); under “TCCCACCACCACACAAATCCACGCCCGCACTACTGCCACCCGGAGTCACCTAGTGCAG”, 3880 fluorescence intensity (a.u.).

“TTCGCCAGTAGAATGACACTGATTTTCTATGGCCTCTTAGCGGAGTCACCTAGTGCAG”: the binding signal was 3510 fluorescence intensity (a.u.). Consider “GAGCAACTTTGATAGTGCCTGCATGCTCATGTGTTGGCAGCGGAGTCACCTAGTGCAG”, for which the binding signal was 4200 fluorescence intensity (a.u.).

Consider “ATGGGTCTGGTGAGTCAAGAACCTGCCCTCTTCAACGACACGGAGTCACCTAGTGCAG”, for which the binding signal is 4720 fluorescence intensity (a.u.). “TTAGGCCAAGTATGGGGTTGGGGCTATGGAGGAGAAGGGCCGGAGTCACCTAGTGCAG”: the binding signal is 3320 fluorescence intensity (a.u.).

In the case of “TCGTCATCCCAGAGGGCGGCGAAAGTGACGTGGCAGACGGCGGAGTCACCTAGTGCAG”, the binding signal was 28000 fluorescence intensity (a.u.). Under “CTATCATACATGCGGAATATGAGTTGTCAGATTGTCTAATCGGAGTCACCTAGTGCAG” stands 33700 fluorescence intensity (a.u.); under “TATATATAGATACTATACTACACGTGGGGTGCGTTGTATTCGGAGTCACCTAGTGCAG”, 6770 fluorescence intensity (a.u.); under “GCGGCCGTGGTCACCGCACGCGCGCGTGCAGCATGTCGCCCGGAGTCACCTAGTGCAG”, 3210 fluorescence intensity (a.u.). For the sequence “CAAGGGAGGAGGGAGAAAGAAAAGGATGGGAGATTTGCTCCGGAGTCACCTAGTGCAG”, the binding signal is 3290 fluorescence intensity (a.u.). Under “GCCCTCCACGCGTCGTTGAGTCTCGGGACACGTCCCAGTCCGGAGTCACCTAGTGCAG” stands 4380 fluorescence intensity (a.u.). As to “ATTAGTTCGAGGGTTTCGTGCGCTGGCAGGCGGACCGGGCCGGAGTCACCTAGTGCAG”, the binding signal is 3370 fluorescence intensity (a.u.). Under “CTGTCACGTGGAACCCACCTGTCATCCGGCCCAAAGAAACCGGAGTCACCTAGTGCAG” stands 5060 fluorescence intensity (a.u.); under “GAGAGGGCAGCAGAACGCGCCGGCCGGCGTGATGCTGCGGCGGAGTCACCTAGTGCAG”, 3580 fluorescence intensity (a.u.). In the case of “TCAGAATCAACTGTTGAGTAATATAGTGAAATTTTGTGGTCGGAGTCACCTAGTGCAG”, the binding signal was 29400 fluorescence intensity (a.u.). As for “TGTCGGCGCACGGAAACGTGTCGTGGGGCTGTGTCTTGTGCGGAGTCACCTAGTGCAG”, the binding signal was 3280 fluorescence intensity (a.u.). Turning to “TCAGTGTGTCACGTGACTCACCACCTCCTCCACACCAAACCGGAGTCACCTAGTGCAG”, the binding signal was 17300 fluorescence intensity (a.u.). For the sequence “TTTTGAACCTAAACGTGTCTGTTTCCACCAGTGCTGCGTACGGAGTCACCTAGTGCAG”, the binding signal was 3310 fluorescence intensity (a.u.). On to “GCCGCCTCGTCTGCAACCGCCTCCGCCTCCACGACCGACTCGGAGTCACCTAGTGCAG”, for which the binding signal was 3450 fluorescence intensity (a.u.).

Regarding “CATGGCGCGGAGGGAGGTGGAGTTGATCGCGCCGCACGCCCGGAGTCACCTAGTGCAG”, the binding signal was 3450 fluorescence intensity (a.u.).

For the sequence “CCCGAGTAGCCGGTTGCATCAACGGTGGCGATATCAAGCGCGGAGTCACCTAGTGCAG”, the binding signal was 4160 fluorescence intensity (a.u.).

As for “TTTTATACACGAAAGCGCCACGTCAGCTCTACATGGAACGCGGAGTCACCTAGTGCAG”, the binding signal was 31800 fluorescence intensity (a.u.).

For the sequence “GCGAAGAACGCTTGCACTTGTGTGCAGCGACGCGCGAATTCGGAGTCACCTAGTGCAG”, the binding signal is 4440 fluorescence intensity (a.u.). With “TTGTGCCATGTATGTATGCATGGGTGTCACACCGCACCACCGGAGTCACCTAGTGCAG” the figure was 4210 fluorescence intensity (a.u.). In the case of “CTCGCGGTTGATCTCTCCCGGCCTTGTACGCCACCCGCGTCGGAGTCACCTAGTGCAG”, the binding signal was 11800 fluorescence intensity (a.u.). Regarding “GGAAACAGCAATGCAGCTGCCTGTAGAGACAATAGTTTTCCGGAGTCACCTAGTGCAG”, the binding signal is 3760 fluorescence intensity (a.u.). Under “TACAATACGTTCTTCCCAATAAGTATGGGCCACACGTCACCGGAGTCACCTAGTGCAG” stands 9320 fluorescence intensity (a.u.); under “AGAAAAGCTCGGTGCCGCCATTAATGGGCTCTCCGTACAACGGAGTCACCTAGTGCAG”, 34500 fluorescence intensity (a.u.). With “TAAGTTGAGGATGCCACGTATCTGGTTTTGTAATTAGGGGCGGAGTCACCTAGTGCAG” the figure was 8550 fluorescence intensity (a.u.); with “TGTTTGTGTACGGGTGATACGTTGTATGAGTTGTCTCTTACGGAGTCACCTAGTGCAG”, 4540 fluorescence intensity (a.u.); with “AATTGACTCGACATATATCGAGCTGTCACGGTAAAGGCCGCGGAGTCACCTAGTGCAG”, 3550 fluorescence intensity (a.u.). For “AGTACGACCAGCTTAGCGTCGCGTACTCGCGTCAGCGCAGCGGAGTCACCTAGTGCAG”, the binding signal was 3420 fluorescence intensity (a.u.). With “GACGCCTGCCTGTCGCGCTGATGCTATCACCATGGGTACCCGGAGTCACCTAGTGCAG” the figure was 3420 fluorescence intensity (a.u.); with “CCTCCTCGGGTGCTGACGTGGCACCCCGGCCGACGCGGCCCGGAGTCACCTAGTGCAG”, 25300 fluorescence intensity (a.u.); with “AGTTGTTTTGTTGATAGGTATAGGTATGAATCGAATTATTCGGAGTCACCTAGTGCAG”, 34400 fluorescence intensity (a.u.). With “TTGGTTTGCAGTGGATGAGGAGGAAATTTTGAGCGACTTGCGGAGTCACCTAGTGCAG” the figure was 3770 fluorescence intensity (a.u.); with “GCATCTAGAATAAATTATTATGTTTTACTAAATACAAATACGGAGTCACCTAGTGCAG”, 30600 fluorescence intensity (a.u.).

Regarding “TTCTTGCCTTTATCTTGCAGCCATTGCACACACCTCACTTCGGAGTCACCTAGTGCAG”, the binding signal was 4410 fluorescence intensity (a.u.). Regarding “TGGGCCAAACCACCGCCACGTTGCCATCGCTGATTCGCCGCGGAGTCACCTAGTGCAG”, the binding signal was 10700 fluorescence intensity (a.u.). Turning to “TCGGCCCCTATTGCGTCACTGGGCGTCGCCTCCCCTTTCTCGGAGTCACCTAGTGCAG”, the binding signal is 7960 fluorescence intensity (a.u.). Turning to “TGTCCGCGAGGTGCGCCGACCCGCTGCTCCGCAGGTTGGACGGAGTCACCTAGTGCAG”, the binding signal is 8490 fluorescence intensity (a.u.). For “GCCACGGGCGAGCCGACGAGCAGCGTGCGTCACCACCGTACGGAGTCACCTAGTGCAG”, the binding signal is 6640 fluorescence intensity (a.u.). With “ACCCCACACCTTTTCTCCTACCCACCACCCGTCTCCGCAACGGAGTCACCTAGTGCAG” the figure was 3140 fluorescence intensity (a.u.); with “TCACAAAGTTGTCCTTTCCACACGTCCTCCTATATGCACTCGGAGTCACCTAGTGCAG”, 4600 fluorescence intensity (a.u.). Turning to “TCCTGCAGCGGGGCGCGTGGCTCGTCTAGAAATCGGATGACGGAGTCACCTAGTGCAG”, the binding signal was 5950 fluorescence intensity (a.u.). In the case of “AACAATCTACGTCTCGTCTCGTCACGGCCCAATCCACGATCGGAGTCACCTAGTGCAG”, the binding signal was 4370 fluorescence intensity (a.u.). With “GCAGCATATGACATTCTGTCTGATGAAGAGAAGAGGAAAACGGAGTCACCTAGTGCAG” the figure was 22600 fluorescence intensity (a.u.); with “GGTGCGGGAATGGGAAGAAGTCGGCGGACTAGAGGGGCGGCGGAGTCACCTAGTGCAG”, 3140 fluorescence intensity (a.u.).
